The results in this text go back to US4209442A (Richter Gedeon Vegyeszeti Gyar Rt., priority 1977, dated 1980).

The nature of the first series: general procedure: solution-phase peptide synthesis; pentafluorophenyl active esters (OPFP). The conditions noted are these: coupling step.
The substance “Z-OAlal-Arg(NO2)-Val-Tyr(Bzl)-Ile-His(Dnp)-Pro-Leu-ONP” showed a step yield of 93%.
In turn, “Z-OGly-Arg(NO2)-Val-Tyr(Bzl)-Ile-His(Dnp)-Pro-Leu-ONB” displayed a step yield of 85%.
On the same count and under the same terms, then “Z-OGly-Arg(NO2)-Val-Tyr(Bzl)-Ile-His(Dnp)-Pro-Thr(Me)-OMe”, with 93%; and “Z-OGly-Arg(NO2)-Val-Tyr(Bzl)-Ile-His(Dnp)-Pro-Ala-ONB”, with 83%.

The same series, now with this note: late stage modification step.
Consider “(L-α-hydroxypropyl^1 -Leu^8)-angiotensin II”, for which the step yield amounted to 70%.
With “Z-OAla-Arg(NO2)-Val-Tyr(Bzl)-Ile-His-Pro-Leu-ONB”, the step yield came to 92%.
